From article PMC6222122
These are yes or no findings as the source states them, for the method shown. Binding seen in cells or lysates may run through a third protein. Some entries that bind do so weakly or less than the wild type.

Protein sequences, listed by entry. Tags and fused reporters are not part of them. Lines headed by an entry give the natural chain unless they say otherwise; changes in a name come on top. Residues count along the entry.
UniProt O75533: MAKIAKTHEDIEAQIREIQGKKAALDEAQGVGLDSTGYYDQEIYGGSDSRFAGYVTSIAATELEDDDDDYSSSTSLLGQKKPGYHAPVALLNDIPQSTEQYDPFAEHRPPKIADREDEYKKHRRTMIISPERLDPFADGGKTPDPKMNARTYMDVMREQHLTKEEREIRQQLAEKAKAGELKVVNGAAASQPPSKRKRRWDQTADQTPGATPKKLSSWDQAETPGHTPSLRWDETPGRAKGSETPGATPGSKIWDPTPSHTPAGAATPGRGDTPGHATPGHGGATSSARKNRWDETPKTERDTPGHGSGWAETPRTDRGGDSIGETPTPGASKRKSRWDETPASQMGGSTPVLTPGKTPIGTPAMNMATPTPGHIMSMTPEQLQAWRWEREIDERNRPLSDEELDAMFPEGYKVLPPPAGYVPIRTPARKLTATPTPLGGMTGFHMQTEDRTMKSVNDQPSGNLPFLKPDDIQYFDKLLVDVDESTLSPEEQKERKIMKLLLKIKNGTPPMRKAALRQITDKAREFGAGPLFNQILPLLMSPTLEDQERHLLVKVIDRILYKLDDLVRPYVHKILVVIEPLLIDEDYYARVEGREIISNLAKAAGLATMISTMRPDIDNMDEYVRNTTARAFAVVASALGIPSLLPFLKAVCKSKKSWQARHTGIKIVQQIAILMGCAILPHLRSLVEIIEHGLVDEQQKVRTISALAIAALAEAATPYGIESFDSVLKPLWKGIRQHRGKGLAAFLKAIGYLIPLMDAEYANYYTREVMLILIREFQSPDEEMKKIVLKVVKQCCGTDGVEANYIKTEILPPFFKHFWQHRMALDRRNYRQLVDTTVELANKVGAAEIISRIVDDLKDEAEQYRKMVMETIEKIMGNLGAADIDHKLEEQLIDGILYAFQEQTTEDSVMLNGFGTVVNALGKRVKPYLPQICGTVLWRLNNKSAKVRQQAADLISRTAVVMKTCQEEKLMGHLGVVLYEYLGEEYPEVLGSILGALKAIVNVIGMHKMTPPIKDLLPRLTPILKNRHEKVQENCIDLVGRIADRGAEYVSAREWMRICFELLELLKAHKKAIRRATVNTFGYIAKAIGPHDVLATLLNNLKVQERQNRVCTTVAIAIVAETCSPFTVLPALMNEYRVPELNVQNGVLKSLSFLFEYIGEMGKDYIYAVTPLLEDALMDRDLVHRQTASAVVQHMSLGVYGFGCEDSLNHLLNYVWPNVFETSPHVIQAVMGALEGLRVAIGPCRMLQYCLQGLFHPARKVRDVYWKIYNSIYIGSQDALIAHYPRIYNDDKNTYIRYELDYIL
UniProt O60563: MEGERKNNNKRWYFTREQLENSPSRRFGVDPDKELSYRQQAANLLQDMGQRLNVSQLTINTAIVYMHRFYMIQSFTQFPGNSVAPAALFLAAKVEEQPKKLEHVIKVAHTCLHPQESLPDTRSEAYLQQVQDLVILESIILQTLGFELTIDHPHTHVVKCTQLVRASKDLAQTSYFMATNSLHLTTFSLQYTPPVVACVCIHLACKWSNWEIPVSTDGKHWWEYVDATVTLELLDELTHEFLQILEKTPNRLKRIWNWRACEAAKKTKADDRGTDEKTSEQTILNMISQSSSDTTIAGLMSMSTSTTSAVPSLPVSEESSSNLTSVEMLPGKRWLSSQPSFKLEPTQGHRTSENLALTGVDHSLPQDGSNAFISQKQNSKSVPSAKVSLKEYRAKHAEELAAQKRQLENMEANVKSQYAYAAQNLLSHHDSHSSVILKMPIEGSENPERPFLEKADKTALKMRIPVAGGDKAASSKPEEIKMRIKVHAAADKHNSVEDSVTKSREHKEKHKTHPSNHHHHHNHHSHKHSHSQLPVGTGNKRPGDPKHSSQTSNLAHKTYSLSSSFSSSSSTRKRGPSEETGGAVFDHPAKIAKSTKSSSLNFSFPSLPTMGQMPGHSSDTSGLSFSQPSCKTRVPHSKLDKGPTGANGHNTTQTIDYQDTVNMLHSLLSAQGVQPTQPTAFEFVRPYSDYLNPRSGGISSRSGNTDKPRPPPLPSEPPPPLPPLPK
UniProt P04608: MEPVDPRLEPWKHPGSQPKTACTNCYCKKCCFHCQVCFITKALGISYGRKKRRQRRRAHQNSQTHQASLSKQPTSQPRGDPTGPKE
GST-Tat 1-72R, one exon, wild-type: residues 1-72 of P04608
GST-Tat 1-48w, truncated after amino acid 48 with wild-type activation domain: residues 1-48 of P04608
UniProt P50750: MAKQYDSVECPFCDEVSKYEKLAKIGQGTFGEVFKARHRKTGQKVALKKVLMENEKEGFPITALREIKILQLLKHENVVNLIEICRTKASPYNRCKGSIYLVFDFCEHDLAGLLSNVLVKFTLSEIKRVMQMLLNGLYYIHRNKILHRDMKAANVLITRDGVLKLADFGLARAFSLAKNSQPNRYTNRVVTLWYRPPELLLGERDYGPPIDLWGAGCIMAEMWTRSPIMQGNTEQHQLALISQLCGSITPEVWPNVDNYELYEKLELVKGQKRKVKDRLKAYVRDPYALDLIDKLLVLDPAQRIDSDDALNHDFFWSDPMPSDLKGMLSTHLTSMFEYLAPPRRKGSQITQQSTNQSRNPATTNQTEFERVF

What was measured:
[1] = target: splicing factor 3B subunit 1 (SF3B1), endogenous in JLAT10.6 cells (human (endogenous in JLAT10.6)) (UniProt O75533); test: co-IP
[2] = target: Myc-cyclin T1 (UniProt O60563); test: co-IP
[3] = target: GST-Tat 1-86R, two exons, wild-type (HIV-1) (UniProt P04608); test: pull-down; GST or GST-Tat mutants on glutathione Sepharose 4B beads incubated with untransfected 293T whole-cell lysate at 4°C overnight; blot probed for endogenous SF3B1 or GST; only the target purified
[4] = target: GST-Tat 1-48w, truncated after amino acid 48 with wild-type activation domain (HIV-1) (UniProt P04608); test: as above
[5] = target: GST-Tat 1-72R, one exon, wild-type (HIV-1) (UniProt P04608); test: as above

binding [1]	Substance	binding [2]	binding [3]	binding [4]	binding [5]
binds	cyclin-dependent kinase 9 (CDK9), endogenous in JLAT10.6 cells (from UniProt P50750 1-372)				
	splicing factor 3B subunit 1 (SF3B1), endogenous in 293T cells (from UniProt O75533 1-1304)	binds	binds	no binding	binds
